In paper PMC9425029, “Secretagogin is a Ca^2+-dependent stress-responsive chaperone that may also play a role in aggregation-based proteinopathies” (The Journal of Biological Chemistry, 2022):
No constants are given. Whether binding was seen depends on the method and setting. Sequences can lack the tags named with a protein.

Target: Secretagogin (mouse SCGN) (mouse) (UniProt Q91WD9)
Assay: SAXS; reducing conditions (5 mM DTT), SCGN about 5-18 mg/ml, without or with 8 mM Ca2+; 50 mM Tris pH 7.5, 100 mM KCl; both purified

B1: Secretagogin (mouse SCGN) (natural protein, UniProt Q91WD9 1-276, looked up)
chain: MDNARRKTPARLDAACFWQIWQRFDKEEKGYIRETELDAFFDHLLAKSGTEDTLMEENVQKVKEQLMTSHNVSKEGRILMKELASMFLSEDENFLLFFRLETPLDNSVEFMQIWRKYDADSSGFISAAELCNFLRDLFLHHKKNISEAELEEYTSTMMKIFDKNKDGRLDLNDLARILALQENFLLQFKMDASSTEERKRDFEKIFAHYDVSKTGALEGPEVDGFVKDMMELVQPSISGVDLDKFREILLRHCDVNKDGKIQKSELALCLGLKINP
notes: secretagogin, mouse, cloned in pET21b; Used Ca2+-free (apo) or with Ca2+ (holo); the assays tell them apart; also called apo-SCGN; holo-SCGN; source: E. coli BL21-DE3 (pET21b), purified (Ni-NTA-Sepharose, size-exclusion chromatography), decalcified with EDTA
With B1 the binding was “no binding (condition: reducing conditions (5 mM DTT))”.
